Among the data in PubChem BioAssay AID2685 (National Center for Advancing Translational Sciences (NCATS), 2010) are cell number change and AC50 values, retold here.

Molecules are shown by their SMILES. The list shows a part of the results. Further columns of the screen follow, without active or inactive calls. The list favours compounds with an active or inconclusive main result. Words in brackets tell the shape of the fitted curve; partial curves, single points and poor fits give uncertain potencies.

This assay in a line: qHTS Assay for Lipid Storage Modulators in Drosophila S3 Cells.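 On cell number change: cells counted by Cell Tracker Red CMTPX staining in the red channel.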 Particulars: BODIPY lipid droplet fluorescence, 18-24 h; for cell number change: measured here: cell count max response, cells fed with added oleic acid. A digest of the protocol: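 Drosophila S3 cells got compounds at several concentrations plus oleic acid (400 uM solution). Laser-scanning cytometry with 488 nm excitation read lipid droplets at 500-530 nm and cells at 575-640 nm. Percent activity was relative to 20 uM Triacsin C.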

Where [1] appears, read: measured here: lipid fluorescence (Fed channel) AC50, cells fed with added oleic acid.
[2] abbreviates: measured here: cell number channel AC50, cells fed with added oleic acid.

For `N#CC1(c2ccccc2)CCN(S(=O)(=O)c2ccc(OC(F)(F)F)cc2)CC1`, the cell number change came out at 15.2%. Moreover, the concentration at half-maximal activity (AC50) under setting [1] is 6510 nM [falling, single point].

As for `O=C(NC1CCN(C(=S)Nc2ccc(Cl)cc2)CC1)C1CCCCC1`, the cell number change was -2.86%. Moreover, the half-maximal activity concentration (AC50) under setting [2] was 731 nM [rising, partial curve, poor fit].

`CCOC(=O)C1CCN(c2cc3c(cc2NC(=O)c2cc(OC)ccc2Br)n(C)c(=O)n3C)CC1`: the AC50 under setting [1] was 326 nM [rising, partial curve, poor fit].

For the compound `COc1cccc(-c2nc3ccc([N+](=O)[O-])cc3o2)c1`, the cell number change is -4.52%. For the same compound, under setting [2], the AC50 is 1640 nM [falling, partial curve, poor fit]. In addition, the AC50 under setting [1] was 4110 nM [falling, full curve, poor fit].

For the compound `Cc1c(C)c2ccc(OC(C)C(=O)NCCCN3CCOCC3)c(C)c2oc1=O` (centres undefined), the cell number change is 26.6%. In addition, the AC50 under setting [1] is 29100 nM [rising, single point].

As for `Cc1cc(Nc2ccc3c(c2)OCCO3)c2ccccc2n1`, the cell number change is -4.3%. Also, the AC50 under setting [1] is 731 nM [rising, full curve].

For `CCCc1nc2ccccc2c2nc(N)nn12`, the cell number change was -2.43%. The half-maximal activity concentration (AC50) under setting [1] is 2590 nM [rising, full curve].

Regarding `N#CCCN(C(=O)CSc1ccc2c(c1)OCCO2)c1ccc(F)cc1`, the cell number change is -0.809%. Also, the half-maximal activity concentration (AC50) under setting [1] is 1030 nM [falling, full curve].

Regarding `O=C(O)CN1C(=O)c2ccc(Oc3cccc4c3C(=O)N(CC(=O)O)C4=O)cc2C1=O`, the cell number change is -14.3%. For the same compound, under setting [1], the half-maximal activity concentration (AC50) is 731 nM [falling, full curve, poor fit].

In the case of `O=C(O)c1cccc2c1C(=O)c1cc(Br)ccc1S2(=O)=O`, the cell number change is -2.52%.

`CCN(CC)CCCN(C(=O)c1ccco1)c1nc(-c2ccc(Cl)cc2)cs1`: the cell number change is -12.4%. For the same compound, the AC50 under setting [1] is 20600 nM [falling, single point].

Consider `COc1ccc(C(=O)COC(=O)c2nn(C)cc2Cl)cc1`, for which the cell number change was 1.71%. In addition, under setting [1], the half-maximal activity concentration (AC50) was 2310 nM [rising, full curve, poor fit].

As to `CCC(C)Sc1nc2ccccc2n1CC(=O)O` (centres undefined), the cell number change was -69.3%. The AC50 under setting [2] was 16400 nM [falling, single point].

As for `CCC(=O)Nc1nc2nc(C)cc(=O)n2[nH]1`, the cell number change is -90.8%. Under setting [2], the half-maximal activity concentration (AC50) was 1640 nM [falling, full curve].

Regarding `O=C(COC(=O)Cc1ccc(F)cc1)NCCc1ccccc1`, the cell number change is -2.24%. Also, the AC50 under setting [1] was 2910 nM [rising, single point].

For the compound `COc1ccc(C(CNC(=O)c2cccc(S(=O)(=O)Nc3ccccc3OC)c2)N2CCCC2)cc1` (centres undefined), the cell number change came to 93%. In addition, the AC50 under setting [2] was 18400 nM [rising, single point].

Regarding `CCn1c(O)c(/C=C2\C=NN=C2c2ccc(C)cc2)sc1=S`, the cell number change is -3.33%. In addition, the AC50 under setting [2] was 92 nM [falling, full curve, poor fit]. For the same compound, the half-maximal activity concentration (AC50) under setting [1] is 130 nM [falling, full curve, poor fit].

In the case of `O=C(Nc1cccc(C(F)(F)F)c1)c1cccnc1NCCc1ccccc1`, the cell number change is -18.9%.

On to `O=C(Cc1cn(Cc2cccc(Cl)c2)c2ccccc12)N1CCCC1`, for which the cell number change was -0.996%. Moreover, under setting [1], the AC50 is 259 nM [rising, full curve, poor fit].

With `COCC1CCCCN1C(=O)c1ccc(OC2CCN(CCc3ccccc3)CC2)cc1` (centres undefined), the cell number change is -8.56%. Besides, under setting [1], the AC50 is 1160 nM [falling, full curve, poor fit].

On to `COc1ccc(CNC(=O)[C@@H](NC(=O)C2CCN(C(=O)[C@@H]3CCCN3C(=O)OC(C)(C)C)CC2)C(C)C)cc1`, for which the concentration at half-maximal activity (AC50) under setting [1] is 6510 nM [rising, single point].

As for `O=C(c1cc(-c2ccc(Cl)cc2)on1)N1CCCCCC1`, the cell number change is 30.9%. Besides, under setting [1], the AC50 is 6510 nM [rising, single point].

Regarding `O=C(N/C=N/OCc1ccc(Cl)cc1Cl)NOCc1c(Cl)cccc1Cl`, the cell number change was -64.9%. Under setting [2], the AC50 is 29100 nM [falling, single point]. Also, the AC50 under setting [1] is 29100 nM [falling, single point].

Consider `CC(C)(C)N(Cc1cc2ccccc2[nH]c1=O)C(=O)c1cccc([N+](=O)[O-])c1`, for which the cell number change worked out at 19.6%.

On to `O=C(c1csc2c1CCCC2)N1CCN(c2ccccc2)CC1`, for which the cell number change was found to be 1.46%.

On to `O=[N+]([O-])c1cc2c(cc1CN1CCN(c3ccccc3F)CC1)OCO2`, for which the cell number change came out at 30.5%. In addition, under setting [2], the AC50 was 517 nM [rising, full curve, poor fit].

On to `NC(=O)c1ccc(N2CCNC(=O)C2)c([N+](=O)[O-])c1`, for which the cell number change is -19%. Besides, the AC50 under setting [1] is 206 nM [rising, single point].

As for `CC(C)[N+](C)(C)CC#CC(O)(c1ccccc1)c1ccccc1`, the cell number change is -14%. Moreover, the concentration at half-maximal activity (AC50) under setting [1] was 6510 nM [falling, single point].

In the case of `CCCCN(C)CCNC(=O)Cn1c(=O)sc2ccccc21`, the cell number change was 11.6%. Under setting [1], the concentration at half-maximal activity (AC50) is 5.17 nM [falling, full curve, poor fit].

Regarding `CCc1cc2c(=O)c(-c3nc4ccccc4n3C)coc2c(CN2CCCCC2)c1O`, the cell number change amounted to 19.4%. Besides, the concentration at half-maximal activity (AC50) under setting [1] is 29100 nM [rising, single point].

Regarding `CN(C)CC(C)(C)CNS(=O)(=O)c1ccc(OC(F)(F)F)cc1`, the cell number change was -12.1%. The AC50 under setting [1] is 6510 nM [falling, partial curve, poor fit].

Take `Cc1nn(CC(O)COc2ccc3c(c2)CCC3)c(C)c1Br` (centres undefined): the cell number change was -39.4%. Further, the AC50 under setting [2] was 29100 nM [falling, single point]. For the same compound, the AC50 under setting [1] is 29100 nM [falling, single point].

Take `C[C@H]1[C@H](c2ccccc2)C[C@@H](C(=O)O)C1(C)C`: the cell number change was -10.7%. Moreover, the AC50 under setting [1] was 1640 nM [rising, partial curve, poor fit].

For the compound `Cc1ccc(NC(=O)Cn2c(=O)n(CCCCC(=O)NCc3ccco3)c(=O)c3ccccc32)cc1`, the cell number change came out at 26.5%. In addition, under setting [2], the half-maximal activity concentration (AC50) is 2060 nM [rising, partial curve, poor fit]. Under setting [1], the half-maximal activity concentration (AC50) was 1300 nM [rising, full curve].

`CCCCn1c(N)c(N(Cc2ccccc2OC)C(=O)CC2OC(=O)c3ccccc32)c(=O)[nH]c1=O` (centres undefined): the cell number change stood at 5.94%. Moreover, the AC50 under setting [1] is 18400 nM [rising, partial curve].

Turning to `Cc1ccc(-n2nnc3c(=O)n(CC(N)=O)cnc32)cc1`, under setting [2], the concentration at half-maximal activity (AC50) was 6510 nM [rising, single point].

In the case of `COC(=O)c1sccc1NC(=O)c1ccc(OC)c([N+](=O)[O-])c1`, the cell number change came to 0.923%. Besides, the AC50 under setting [2] was 1030 nM [falling, full curve].

For `Oc1ccc2ccccc2c1C=NCc1cn2ccsc2n1`, the cell number change is -7.18%. Also, the AC50 under setting [1] is 23100 nM [falling, single point].

Usually AC50 stands for the concentration giving half of the maximal activity seen. Lower therefore signals activity at low concentration.
